Counter-ions that a name gives are not always drawn. The list shows a part of the results. Single values are uncertain here, since repeats match poorly.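 JEG3 cells stably express tetracycline-inducible wild-type human LRH-1, a highly sumoylated nuclear receptor. SUMO-sensitive transcripts APOC3 and MUC1, increased by SUMO-deficient LRH-1 or UBC9 knockdown, were quantified by RT-qPCR relative to TBP and DMSO controls. Primary hits had robust Z-scores above +2 or below -2, before toxicity and TBP filtering.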
Test system: JEG3 expressing hLRH-1
Experiment: APOC3 transcript change (ddCt vs TBP and DMSO), Z-score over library; higher = higher APOC3 expression
Conditions: 10 µM; time (hr): 24

Going from Cn1c(=O)c2nc[nH]c2n(C)c1=O [Aminophylline] to Cn1c(=O)c2c(ncn2C)n(C)c1=O [Caffeine], the “APOC3 transcript change (Z-score)” value falls from -0.37 to -1.

Going from Fc1ccc([C@@H]2CCNC[C@H]2COc2ccc3c(c2)OCO3)cc1 [paroxetine hydrochloride] to O=C(CCCN1CCC(O)(c2ccc(Cl)cc2)CC1)c1ccc(F)cc1 [Haloperidol], the “APOC3 transcript change (Z-score)” value rises from -0.622 to -0.399.

Compared with OCCN1C[C@H](O)[C@@H](O)[C@H](O)[C@H]1CO [miglitol], OC[C@@H](O)C(O[C@@H]1O[C@H](CO)[C@H](O)[C@H](O)[C@H]1O)[C@H](O)[C@@H](O)CO (stereo partly drawn) [d-lactitol monohydrate] is lower in “APOC3 transcript change (Z-score)” value: 0.279 for the first, 0.0936 for the second.

Compared with CC(=O)OCC[N+](C)(C)C [acetylcholine], CC(=O)OCC(COC(C)=O)OC(C)=O [triacetin] is higher in “APOC3 transcript change (Z-score)” value: -0.15 for the first, 0.436 for the second.

First: O=C(O)c1ccccc1C(=O)Nc1ccc(S(=O)(=O)Nc2nccs2)cc1 [phthalylsulfathiazole]
Second: Nc1ccc(S(=O)(=O)Nc2ccc(Cl)nn2)cc1 [sulfachlorpyridazine]
The “APOC3 transcript change (Z-score)” value of the first is higher: 0.385 for the first, -0.162 for the second.

First: COc1ccc(-n2nc(CCC(=O)N(C)O)cc2-c2ccc(Cl)cc2)cc1 [tepoxalin]
Second: COc1ccc2cc([C@H](C)CO)ccc2c1 [naproxol]
The “APOC3 transcript change (Z-score)” value of the first is higher: 1.44 for the first, -0.754 for the second.

Going from CC1=C(/C=C/C(C)=C/C=C/C(C)=C\C(=O)O)C(C)(C)CCC1 [isotretinon] to CC(=O)OCC(=O)[C@@]1(OC(C)=O)[C@@H](C)C[C@H]2[C@@H]3C[C@H](F)C4=CC(=O)C=C[C@]4(C)[C@@]3(F)[C@@H](O)C[C@@]21C [diflorasone diacetate], the “APOC3 transcript change (Z-score)” value falls from 3.65 to 0.48.

Compared with COc1c(C)c2c(c(O)c1C/C=C(\C)CCC(=O)OCCN1CCOCC1)C(=O)OC2 [mycophenolate mofetil], COc1c(N2CCNC(C)C2)c(F)cc2c(=O)c(C(=O)O)cn(C3CC3)c12 (stereo not drawn) [gatifloxacin] is lower in “APOC3 transcript change (Z-score)” value: 1.44 for the first, 0.356 for the second.

Going from CO[C@@]1(NC(=O)C(C(=O)O)c2ccc(O)cc2)C(=O)N2C(C(=O)O)=C(CSc3nnnn3C)CO[C@@H]21 (stereo partly drawn) [moxalactam disodium] to CO/N=C(\C(=O)N[C@@H]1C(=O)N2C(C(=O)OC(C)OC(C)=O)=C(COC(N)=O)CS[C@H]12)c1ccco1 (stereo partly drawn) [cefuroxime axetil], the “APOC3 transcript change (Z-score)” value rises from -0.567 to -0.0532.

Going from CC/C=C\C/C=C\C/C=C\C/C=C\C/C=C\CCCC(=O)OCC [omega-3-acid esters (epa shown)] to CCN(CC)CCOCCOC(=O)C(CC)(CC)c1ccccc1 [oxelaidin citrate], the “APOC3 transcript change (Z-score)” value falls from -0.465 to -1.05.

Going from OCc1ccccc1O [salicyl alcohol] to O=C(O)Cc1ccc(-c2ccccc2)cc1 [felbinac], the “APOC3 transcript change (Z-score)” value falls from 1.29 to 0.00124.

First: CSc1ccc2c(c1)C(N1CCN(C)CC1)Cc1ccccc1S2 (stereo not drawn) [Methiothepin mesylate]
Second: CN1CCCCC1CCN1c2ccccc2Sc2ccc(S(C)=O)cc21 (stereo not drawn) [mesoridazine besylate]
The “APOC3 transcript change (Z-score)” value of the first is higher: -0.111 for the first, -0.772 for the second.

Going from CC(=O)Oc1cccc(C)c1 [meta-cresyl acetate] to CCOc1ccc(NC(C)=O)cc1 [phenacetin], the “APOC3 transcript change (Z-score)” value rises from -0.491 to -0.22.

Going from CC1=NN(c2ccccc2)C(=O)C1 [3-methyl-1-phenyl-2-pyrazolin-5-one (mci-186)] to Cc1c(Cl)cccc1Nc1ccccc1C(=O)O [tolfenamic acid], the “APOC3 transcript change (Z-score)” value falls from 0.173 to -0.426.

First: Cc1nc(O)c(C#N)cc1-c1ccncc1 [milrinone]
Second: Cc1cc(=O)oc2cc(O)ccc12 [hymechrome]
The “APOC3 transcript change (Z-score)” value of the first is higher: 0.176 for the first, 0.0948 for the second.

Compared with O=C(O)c1cc(O)c(O)c(O)c1 [gallic acid], O=C(O)c1cc(O)nc(O)n1 [orotic acid] is higher in “APOC3 transcript change (Z-score)” value: -1.17 for the first, -0.962 for the second.

Compared with CCN[C@@H]1C[C@H](N)[C@@H](O[C@H]2OC(CN)=CC[C@H]2N)[C@H](O)[C@H]1O[C@H]1OC[C@](C)(O)[C@H](NC)[C@H]1O [netilmicin sulfate], CC(=O)OCC(=O)[C@H]1CC[C@H]2[C@@H]3CCC4=CC(=O)CC[C@]4(C)[C@H]3CC[C@]12C [desoxycorticosterone acetate] is higher in “APOC3 transcript change (Z-score)” value: -0.359 for the first, 0.298 for the second.

Compared with C[C@@H]1CC2C3CCC4=CC(=O)C=C[C@]4(C)[C@@]3(F)[C@@H](O)C[C@]2(C)[C@@]1(O)C(=O)COP(=O)(O)O (stereo partly drawn) [dexamethasone sodium phosphate], CC12CCC(=O)C=C1CCC1C2[C@@H](O)CC2(C)C1CC[C@]2(O)C(=O)COP(=O)(O)O (stereo partly drawn) [hydrocortisone sodium phosphate] is lower in “APOC3 transcript change (Z-score)” value: 0.227 for the first, -2.38 for the second.

First: FC(F)(F)COCC(F)(F)F [flurothyl]
Second: CC(C)(C)CC(C)(C)c1ccc(O)c(Cc2ccc(Cl)cc2Cl)c1 [clofoctol]
The “APOC3 transcript change (Z-score)” value of the first is lower: -2.13 for the first, 0.306 for the second.

Going from Oc1c(Cl)cc(Cl)c(Cl)c1Cc1c(O)c(Cl)cc(Cl)c1Cl [hexachlorophene] to CC(C(=O)O)c1ccc2c(c1)[nH]c1ccc(Cl)cc12 (stereo not drawn) [carprofen], the “APOC3 transcript change (Z-score)” value rises from -1.11 to -0.187.

Going from Nc1nc(N)c2nc(CNc3ccc(C(=O)NC(CCC(=O)O)C(=O)O)cc3)cnc2n1 (stereo not drawn) [Aminopterin] to O=C(O)CCC(=O)OC[C@@H](NC(=O)C(Cl)Cl)[C@H](O)c1ccc([N+](=O)[O-])cc1 [chloramphenicol hemisuccinate], the “APOC3 transcript change (Z-score)” value rises from -0.825 to 0.771.

Compared with CCN1CCC(CNC(=O)c2cc(S(N)(=O)=O)ccc2OC)C1 (stereo not drawn) [sulpiride], COc1ccc(Cl)cc1C(=O)NCCc1ccc(S(=O)(=O)NC(=O)NC2CCCCC2)cc1 [Glibenclamide] is lower in “APOC3 transcript change (Z-score)” value: 0.283 for the first, -0.591 for the second.

Compared with NS(=O)(=O)c1cc(C2(O)NC(=O)c3ccccc32)ccc1Cl (stereo not drawn) [chlorthalidone], O=C(O)COC(=O)Cc1ccccc1Nc1c(Cl)cccc1Cl [aceclofenac] is higher in “APOC3 transcript change (Z-score)” value: -0.52 for the first, -0.0378 for the second.

Compared with COc1ccc(CCN(C)CCCC(C#N)(c2ccc(OC)c(OC)c2)C(C)C)cc1OC (racemic) [(±)-Verapamil hydrochloride], COc1cc2c3cc1Oc1cc(ccc1O)C[C@@H]1c4c(cc(OC)c(O)c4Oc4ccc(cc4)C[C@@H]3N(C)CC2)CC[N+]1(C)C [tubocurarine chloride] is higher in “APOC3 transcript change (Z-score)” value: -0.2 for the first, 0.934 for the second.

Compared with CC1(C)[C@@H](OC(=O)CCC(=O)O)CC[C@]2(C)[C@H]3C(=O)C=C4[C@@H]5C[C@@](C)(C(=O)O)CC[C@]5(C)CC[C@@]4(C)[C@]3(C)CC[C@@H]12 [carbenoxolone sodium], C[C@]12CC[C@@H]3c4ccc(OS(=O)(=O)O)cc4CC[C@H]3[C@@H]1CCC2=O [estropipate] is higher in “APOC3 transcript change (Z-score)” value: -1.04 for the first, 0.288 for the second.

Going from CC(C)CCCC(C)NC(C)C (stereo not drawn) [iproheptine] to COc1cc(NC(C)CCCN)c2ncccc2c1 (stereo not drawn) [primaquine diphosphate], the “APOC3 transcript change (Z-score)” value rises from 0.55 to 0.93.

Going from O=C(O)C1CSCN1 (stereo not drawn) [timonacic] to C[C@]1(Cn2ccnn2)[C@H](C(=O)O)N2C(=O)C[C@H]2S1(=O)=O [tazobactam], the “APOC3 transcript change (Z-score)” value rises from 0.416 to 0.524.

Going from CCN(CC)CCOc1ccc(/C(=C(\Cl)c2ccccc2)c2ccccc2)cc1 [clomiphene citrate] to CCCCc1oc2ccccc2c1C(=O)c1cc(I)c(OCCN(CC)CC)c(I)c1 [Amiodarone hydrochloride], the “APOC3 transcript change (Z-score)” value rises from -0.321 to 0.866.

Going from CC[C@@H](CO)NCCN[C@@H](CC)CO [ethambutol hydrochloride] to OC[C@@H](O)[C@H](O)[C@@H](O)[C@H](O)CO [sorbitol], the “APOC3 transcript change (Z-score)” value falls from 0.515 to -0.344.

Going from Cc1c(O)c(=O)ccn1C [deferiprone] to CCOC(=O)c1ccc(N)cc1 [benzocaine], the “APOC3 transcript change (Z-score)” value rises from -0.63 to 0.117.

First: C=CC1=C(C)c2cc3nc(cc4[nH]c(cc5[nH]c(cc1n2)c(C)c5C=C)c(C)c4CCC(=O)O)C(CCC(=O)O)=C3C [protoporphyrin ix]
Second: O=C(O)CCc1nc(-c2ccccc2)c(-c2ccccc2)o1 [oxaprozin]
The “APOC3 transcript change (Z-score)” value of the first is higher: -0.146 for the first, -0.197 for the second.

Compared with N=C(N)c1ccc(N=NNc2ccc(C(=N)N)cc2)cc1 [diminazene aceturate], CC[n+]1c(-c2ccccc2)c2cc(N)ccc2c2ccc(N)cc21 [homidium bromide] is lower in “APOC3 transcript change (Z-score)” value: -0.217 for the first, -0.63 for the second.

Going from Nc1[nH]cnc2ncnc1-2 [adenine] to Nc1ncnc2c1ncn2[C@@H]1O[C@H](CO)[C@@H](O)[C@@H]1O [vidarabine], the “APOC3 transcript change (Z-score)” value rises from 0.341 to 0.608.

First: NC(=O)NS(=O)(=O)c1ccc(N)cc1 [sulfacarbamide]
Second: O=C(O)c1ccc(S(=O)(=O)N(Cl)Cl)cc1 [halazone]
The “APOC3 transcript change (Z-score)” value of the first is higher: 1.75 for the first, -0.554 for the second.

Going from Oc1ccc(Cl)c2c1CCC2 [chlorindanol] to COc1ccc2c3c1O[C@H]1C[C@@H](O)C=C[C@@]31CCN(C)C2 [galanthamine hydrobromide], the “APOC3 transcript change (Z-score)” value rises from 0.0175 to 0.0474.

Going from Cc1cc(N)c2ccccc2[n+]1CCCCCCCCCC[n+]1c(C)cc(N)c2ccccc21 [dequalinium chloride] to CCOc1ccc2nc3cc(N)ccc3c(N)c2c1 [ethacridine lactate], the “APOC3 transcript change (Z-score)” value rises from -0.275 to 0.85.

Compared with Nc1nc(NC2CC2)c2ncn([C@H]3C=C[C@@H](CO)C3)c2n1 [abacavir sulfate], CCC1=C(C)CN(C(=O)NCCc2ccc(S(=O)(=O)NC(=O)N[C@H]3CC[C@H](C)CC3)cc2)C1=O [glimepiride] is higher in “APOC3 transcript change (Z-score)” value: 0.347 for the first, 0.585 for the second.

Going from CC(C)c1nc(CN(C)C(=O)N[C@H](C(=O)N[C@@H](Cc2ccccc2)C[C@H](O)[C@H](Cc2ccccc2)NC(=O)OCc2cncs2)C(C)C)cs1 [ritonavir] to CO/C(O)=C1\C(C)=NC(C)=C(C(=O)OC(C)C)C1c1cccc2nonc12 (stereo not drawn) [isradipine], the “APOC3 transcript change (Z-score)” value rises from 0.525 to 0.962.

First: CCNC1CN(CCCOC)S(=O)(=O)c2sc(S(N)(=O)=O)cc21 (stereo not drawn) [brinzolamide]
Second: CCCCCCCCCCCCCCCCOP(=O)([O-])OCC[N+](C)(C)C [miltefosine]
The “APOC3 transcript change (Z-score)” value of the first is higher: 0.305 for the first, -0.213 for the second.

— the supplement of paper PMC4749390
